In publication doi:10.1101/844498 one finds binding data, which are given here for two molecules.

Experiment [1] deals with human Mcm10 internal domain lacking the N-terminal 20 residues (ΔN20, amino acids 256-435) (human) (UniProt Q7L590). In words: SEC. For orientation: SEC sorts molecules by how far they enter the pores of the column.
In experiment [2] the target is human Mcm10 internal domain (hMcm10-ID, residues 236-435), wild type (human) (UniProt Q7L590). Put plainly: SEC.

No constants are given. Whether binding was seen depends on the method and setting.

B1: human Mcm10 internal domain lacking the N-terminal 20 residues (ΔN20, amino acids 256-435) (domain or fragment, UniProt Q7L590-2 256-435)
chain: GPRPRVSSTEMNKKMTGRKLIRLSQIKEKMAREKLEEIDWVTFGVILKKVTPQSVNSGKTFSIWKLNDLRDLTQCVSLFLFGEVHKALWKTEQGTVVGILNANPMKPKDGSEEVCLSIDHPQKVLIMGEALDLGTCKAKKKNGEPCTQTVNLRDCEYCQYHVQAQYKKLSAKRADLQSTFSG
As to B1, the binding result in experiment [1] is given as “no binding (tested: 5 mg ml-1 injected)”.

B2: human Mcm10 internal domain (hMcm10-ID, residues 236-435), wild type (domain or fragment, UniProt Q7L590-2 236-435)
chain: GPSSGETTQPICVEAFSGLRLRRPRVSSTEMNKKMTGRKLIRLSQIKEKMAREKLEEIDWVTFGVILKKVTPQSVNSGKTFSIWKLNDLRDLTQCVSLFLFGEVHKALWKTEQGTVVGILNANPMKPKDGSEEVCLSIDHPQKVLIMGEALDLGTCKAKKKNGEPCTQTVNLRDCEYCQYHVQAQYKKLSAKRADLQSTFSG
For the molecule B2, in experiment [2], the binding entry is reported as “no binding (tested: 5 mg ml-1 injected)”.
